Test results from PMC11696086.
No constants are given. Whether binding was seen depends on the method and setting. In cells and extracts the contact can be indirect. Some binding calls cover weakened binding; strength is not graded here. Tags and fused reporters may be left off the sequences shown.

Target: T1, BTS-GFP (Arabidopsis) (UniProt Q8LPQ5)
T1 sequence: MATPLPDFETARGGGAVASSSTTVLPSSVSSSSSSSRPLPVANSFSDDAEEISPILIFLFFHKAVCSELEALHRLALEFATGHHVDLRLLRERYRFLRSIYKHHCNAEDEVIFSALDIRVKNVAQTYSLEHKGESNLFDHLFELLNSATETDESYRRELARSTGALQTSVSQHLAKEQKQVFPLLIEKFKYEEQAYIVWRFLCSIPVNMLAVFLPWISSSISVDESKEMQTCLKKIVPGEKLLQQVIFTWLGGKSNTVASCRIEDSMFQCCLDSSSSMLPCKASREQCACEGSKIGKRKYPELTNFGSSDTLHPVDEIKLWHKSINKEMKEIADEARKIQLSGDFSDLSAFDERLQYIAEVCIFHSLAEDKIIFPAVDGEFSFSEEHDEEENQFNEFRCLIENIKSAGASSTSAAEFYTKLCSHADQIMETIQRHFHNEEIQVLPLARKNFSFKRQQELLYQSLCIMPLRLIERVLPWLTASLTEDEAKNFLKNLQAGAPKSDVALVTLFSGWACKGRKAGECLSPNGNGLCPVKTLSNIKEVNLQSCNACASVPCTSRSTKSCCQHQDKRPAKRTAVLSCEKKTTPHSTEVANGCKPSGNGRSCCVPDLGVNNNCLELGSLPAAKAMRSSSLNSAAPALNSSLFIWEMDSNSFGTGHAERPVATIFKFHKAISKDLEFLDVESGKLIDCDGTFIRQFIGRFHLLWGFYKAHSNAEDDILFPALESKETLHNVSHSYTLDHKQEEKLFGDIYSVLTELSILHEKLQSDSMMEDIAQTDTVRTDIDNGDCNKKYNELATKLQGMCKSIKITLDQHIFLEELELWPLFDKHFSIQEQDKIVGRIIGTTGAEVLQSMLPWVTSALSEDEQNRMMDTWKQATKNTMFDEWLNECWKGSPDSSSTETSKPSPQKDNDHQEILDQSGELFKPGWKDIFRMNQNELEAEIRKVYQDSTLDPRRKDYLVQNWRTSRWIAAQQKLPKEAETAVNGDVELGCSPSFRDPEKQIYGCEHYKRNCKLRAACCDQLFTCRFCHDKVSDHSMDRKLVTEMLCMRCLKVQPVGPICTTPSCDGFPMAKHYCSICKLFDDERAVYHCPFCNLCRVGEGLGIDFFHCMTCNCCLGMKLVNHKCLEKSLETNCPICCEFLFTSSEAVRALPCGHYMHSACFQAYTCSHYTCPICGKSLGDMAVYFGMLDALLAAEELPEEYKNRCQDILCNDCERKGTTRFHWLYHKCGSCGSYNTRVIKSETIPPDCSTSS
Test: co-IP; N. benthamiana leaves co-expressing BTS-GFP and its partner; immunoprecipitation with GFP antibody-conjugated agarose beads; blots with anti-GFP and anti-Flag

binding: binds
B1: ILR3 co-immunoprecipitated with BTS (construct not described) (protein, UniProt Q9FH37 1-234)
chain: MVSPENANWICDLIDADYGSFTIQGPGFSWPVQQPIGVSSNSSAGVDGSAGNSEASKEPGSKKRGRCESSSATSSKACREKQRRDRLNDKFMELGAILEPGNPPKTDKAAILVDAVRMVTQLRGEAQKLKDSNSSLQDKIKELKTEKNELRDEKQRLKTEKEKLEQQLKAMNAPQPSFFPAPPMMPTAFASAQGQAPGNKMVPIISYPGVAMWQFMPPASVDTSQDHVLRPPVA
